Test results as given in PMC7177849, “Gut Microbial Catabolites of Tryptophan Are Ligands and Agonists of the Aryl Hydrocarbon Receptor: A Detailed Characterization” (International Journal of Molecular Sciences, 2020).

Experiment: Levels of tryptophan in cell culture media by HPLC
Conditions: culture medium containing 10% serum; regardless of the cell-type

N[C@@H](Cc1c[nH]c2ccccc12)C(=O)O [Trp, tryptophan]
Trp concentration in culture medium after 24 h of incubation: approx. 60 µM
